Literature values, collected in patent US20080213404A1, “Hif Modulating Compounds and Methods of Use Thereof” (priority 2005, published 2008).
At least one structure is not confirmed: it was looked up by name or label, or the drawing left a doubt.

Test system: HIF-1α
Conditions: normal oxygen tensions, cultured cells; cited from earlier work

For COC(=O)CNC(=O)C(=O)OC [DMOG, dimethyloxallyl glycine], the “concentrations that stabilize HIF-1α expression” value is given as 0.1 and 1.
